{
  "source": "patent US20160030391A1",
  "about": "“METHODS AND COMPOSITIONS FOR IMPROVING COGNITIVE FUNCTION” (THE JOHNS HOPKINS UNIVERSITY, priority 2013, published 2016)",
  "tested_on": "aged-impaired (AI) rats",
  "experiment": "eight-arm Radial Arm Maze task, one-hour delay, aged-impaired rats",
  "assay_type": "in vivo, rat",
  "details": "valproate on its own",
  "procedure": "The effects of levetiracetam on the spatial memory retention of aged-impaired (AI) rats were assessed in a Radial Arm Maze (RAM) behavioral task using vehicle control and five different dosage levels of levetiracetam (1.25 mg/kg/day, 2.5 mg/kg/day, 5 mg/kg/day, 10 mg/kg/day and 20 mg/kg/day). RAM behavioral tasks were preformed on ten AI rats. All six treatment conditions were tested on all ten rats, as described above for the MWM test. The RAM apparatus used consisted of eight equidistantly-spaced arms. An elevated maze arm (7 cm width x 75 cm length) projected from each facet of an octagonal center platform (30 cm diameter, 51.5 cm height). Clear side walls on the arms were 10 cm high and were angled at 65° to form a trough. A food well (4 cm diameter, 2 cm deep) was located at the distal end of each arm. Froot Loops™ (Kellogg Company) were used as rewards. Blocks constructed of Plexiglas™ (30 cm height x 12 cm width) could be positioned to prevent entry to any arm. Numerous extra maze cues surrounding the apparatus were also provided. The AI rats were initially subjected to a pre-training test (Chappell et al. Neuropharmacology 37: 481-487, 1998). The pre-training test consisted of a habituation phase (4 days), a training phase on the standard win-shift task (18 days) and another training phase (14 days) in which a brief delay was imposed between presentation of a subset of arms designated by the experimenter (e.g., 5 arms available and 3 arms blocked) and completion of the eight-arm win-shift task (i.e., with all eight arms available). In the habituation phase, rats were familiarized to the maze for an 8-minute session on four consecutive days. In each of these sessions food rewards were scattered on the RAM, initially on the center platform and arms and then progressively confined to the arms. After this habituation phase, a standard training protocol was used, in which a food pellet was located at the end of each arm. Rats received one trial each day for 18 days. […]",
  "note": "For at least one compound, name, drawing or mass did not settle the structure.",
  "data": [
    {"smiles": "CCCC(CCC)C(=O)O", "note": "[valproate]", "values": [
      {"measurement": "effective in reducing the number of errors by AI rats in the radial arm maze", "setting": "25 mg/kg subcutaneous", "value": "not"},
      {"measurement": "effective in reducing the number of errors by AI rats in the radial arm maze", "setting": "50 mg/kg subcutaneous", "value": "not"},
      {"measurement": "effective in reducing the number of errors by AI rats in the radial arm maze", "setting": "100 mg/kg subcutaneous", "value": "effective"}
    ]}
  ]
}
